# Primary screen of a compound library

Source: ChEMBL document CHEMBL3988442, “University of Dundee, Small-Polar-MMV Screening Library” (2021).

T. brucei: 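Whole-parasite assay of Trypanosoma brucei over 72 hours; the read-out is not stated. Concentration: 30 µM. Higher reads as stronger inhibition (inferred: compounds with an IC50 in retests scored well above the rest). Values scatter widely below zero; nearly all retest evidence comes from the higher of the two concentrations used. Size under these conditions: about 64,000 compounds, about 940 of them at 50% or above in at least one test.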
Toxoplasma: 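Assay of Toxoplasma gondii numbers, read through their beta-galactosidase reporter with a colour substrate. Concentration: 10 µM. Higher reads as fewer parasites (inferred from which compounds were picked for retests). About 67,000 compounds were tested under these conditions; 0.38% (about 260) showed 50% or more at least once.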

The filed quantity is “Percent Effect” (%). How 0% and 100% were set is not recorded. Most values in the screen are low, and negative values occur. The compounds are a random part of those screened. A dash means the value is not listed here; it may have been measured.

structure,T. brucei,Toxoplasma
Cc1ccccc1NS(=O)(=O)c1cc2c(c(C(=O)O)c1)OCCO2,-30.42%,-3.578%
CCN1CCc2[nH]cnc2C12CCN(c1ccc(Cl)c(C(=O)O)n1)CC2,-27.13%,-4.805%
Cc1cc(NC(=O)C(C)N2CCN(c3nc(C)ns3)CC2)on1 (centres undefined),9.827%,-0.6734%
Cc1cc(-c2cnc(N3CCC(C(N)=O)CC3)nc2C(C)C)on1,-12.27%,6.165%
Cc1cc(C)cc(C(=O)N2CCN(C(=O)N(C)C)CC2(C)C)c1,7.724%,-19.57%
CC(C)N(C)Cc1cncc2c1CCN(C(=O)c1cccc(C#N)c1)C2.Cl.Cl,-27.48%,-16.94%
COCCc1noc(-c2cn(Cc3ccc(OC)cc3)nn2)n1,-,-14.35%
c1cc(CN2CCC[C@@H](Cn3nnc(-c4cnccn4)n3)C2)ccn1,-14.38%,3.329%
CC(Cn1cc(Br)cn1)C(=O)Nc1ccc(Br)cn1 (centres undefined),-,17.14%
COC1CCN(CCNc2ncc(Br)cc2C)CC1,11.25%,9.01%
CN(Cc1cc2cc(F)ccc2[nH]1)C(=O)C1CC(=O)N(C2CC2)C1 (centres undefined),-35.39%,18.15%
CN(C)Cc1nc(C2(NC(=O)Nc3cccc(F)c3)CCCC2)no1,-10.79%,5.364%
O=C(O)C(F)(F)F.c1ccc(CN2CCC3(CC2)CC(Nc2nccs2)CO3)nc1 (centres undefined),-903.3%,-11.85%
O=C(c1cn(CC(=O)N2CCc3[nH]cnc3C2)c2ccccc12)C1CC1,-4.428%,8.134%
c1ccc(Cc2nc(CNCCn3cccn3)cs2)cc1,100.2%,13.57%
Cc1nc(NCCC23CCCN2CCC3)cc(C2CCNCC2)n1,-19.82%,-3.745%
COc1cccc(N2CCN(Cc3ccc4ccn(C)c4c3)CC2=O)c1,2.855%,2.395%
Cc1cnn(CC(=O)N2CCC(Nc3ccc(C)nn3)CC2)c1,-,-5.574%
CC1c2cccn2CCN1S(=O)(=O)N1CCCCCC1 (centres undefined),-22.56%,-20.01%
CC(C)(C)n1ncc2c1NC(=O)CC2c1ccc(C(=O)O)cc1 (centres undefined),7.27%,-10.89%
O=S(=O)(NCC1(O)CCOCC1)c1ccccc1Br,14.42%,15.44%
CCc1ncnc2c1CCN(Cc1ccc3c(c1)OCO3)CC2.O=C(O)C(F)(F)F,-8.568%,-9.273%
COC(=O)C(C)(C)NC(=O)c1cc2sc(N(C)C)nc2s1,-6.439%,7.647%
CCNC(=O)NC[C@@H]1C=C(C)[C@H](CC(=O)NCCN(C)C)C[C@H]1C(C)C,-12.54%,-5.174%
Cc1ccccc1CN(C)C(C(N)=O)c1ccccc1 (centres undefined),-35.28%,17.17%
Cc1sc2nc(CCN)nc(N(C)CCCC3CCCO3)c2c1C (centres undefined),73.15%,3.853%
Cc1cn[nH]c1C1COCCN1C(=O)c1ccc2[nH]nnc2c1 (centres undefined),2.93%,10.75%
CSCCCN1C[C@H](NC(=O)c2ccc(CO)cc2)[C@@H](C2CC2)C1,-31.15%,17.28%
O=C(NCCNc1cc(-n2cccc2)ncn1)c1cccs1,18.16%,-1.158%
CNc1ccc(CC2CCCN(C(=O)c3scnc3C)C2)nn1 (centres undefined),-14.66%,2.499%
c1cnnc(N2CCCC2CNc2ncnc3ccccc23)c1 (centres undefined),-11.66%,0.8436%
Cc1cccc(C(C(=O)NCCCc2ccccn2)N(C)C)c1 (centres undefined),-9.574%,-4.5%
COc1ccc(C)nc1NC(=O)Cc1c(C)nn(C)c1C,-48.16%,3.442%
c1cc(C2CCN(C3CCCCC3)C2)n[nH]1 (centres undefined),-9.218%,16.79%
CN(C)CCn1c2c(ccc1=O)CC(NCc1cccnc1)CC2.O=C(O)C(F)(F)F.O=C(O)C(F)(F)F.O=C(O)C(F)(F)F (centres undefined),-50.16%,-1.888%
[H][C@]12CC[C@@]3(N=C(C)N(CC)C3=O)[C@@]1([H])CN(C(=O)NCC(C)C)C2,-3.154%,5.296%
Cc1csc(C2CCCCN2C(=O)Cn2cncn2)n1 (centres undefined),-39.77%,0.5408%
O=C(O)C(F)(F)F.[H][C@@]12CCN(C(=O)C(C)C)CC[C@]1(C(=O)N1CCOCC1)CCN2CC,-18.65%,22.82%
CC(=O)Nc1ccc(CC(=O)N2CC(S(=O)(=O)C3CCCCC3)C2)cc1,14.79%,15.83%
CN(Cc1csc(-c2ccccc2)n1)Cc1ncccc1C(=O)O,-103.8%,-42.73%
CCOc1ccc(C2CC(=O)Nc3c2c(=O)nc2sccn32)cc1 (centres undefined),13.1%,2.75%
Cc1cc(C(=O)N2CCC3(CCCN(CC4CC4)C3=O)C2)c(C)n1C (centres undefined),-4.137%,4.832%
[H][C@]12CCCCN1CCC[C@H]2Cn1ccnc1-c1ccc(OC)cc1,-5.511%,1.095%
CCN1CCC2(CC1)C(=O)N(c1ccc(C)nc1)CCN2CC(C)C.O=C(O)C(F)(F)F,-64.39%,-3.182%
O=C(CN1CCCC(Cn2cncn2)C1)NCc1ccccc1F (centres undefined),16.77%,10.68%
Cc1cccc(OCCNC(=O)CN2CCN(C)CC2C)c1 (centres undefined),-,-1.079%
C[C@@H]1CN(C(=O)c2ccc(Br)cc2F)CC(C(N)=O)O1 (some centres undefined),-35.68%,5.513%
Cc1cc(N2CCN(C(=O)CCc3scnc3C)CC2)nc(N)n1,-1.981%,2.811%
NC(=O)CCn1nnc(-c2cc3ccccc3o2)n1,-29.46%,-0.4823%
CC(C)Cc1nc(NC(=O)c2cccnc2)n[nH]1,-26.14%,19.72%
CCN(CC)[C@H]1C[C@@H](Cc2cc(CO)on2)C1(C)C,11.82%,8.899%
O=C1N(Cc2ccc(F)c(F)c2)CCCC1(O)CNCc1ccccn1 (centres undefined),5.35%,8.041%
CCn1nc(C)c(CN2CCC(c3ccn[nH]3)C2)c1C (centres undefined),0.07183%,-2.052%
CN1CCN(Cc2cn3c(n2)CN(C(=O)c2ccco2)CC3)CC1,-1.535%,2.709%
COCC1CN(C(=O)Cc2ccccn2)Cc2ncn(C)c21 (centres undefined),-50.45%,-4.585%
CCCn1[nH]cc/c1=N\C(=O)CN1CCc2c(nc(C(C)C)n2C)C1,-68.65%,5.848%
O=C(O)C(F)(F)F.[H][C@@]12CCCO[C@]1([H])[C@@H](Oc1ccccn1)CN2S(=O)(=O)C1CC1,-41.84%,0.7901%
CN(C1CCN(c2ccccn2)CC1)S(=O)(=O)c1ccc(F)cc1,10.24%,-2.193%
Cc1[nH]c2ccc(CNc3cc(C#N)ccn3)cc2c1C,39.43%,-31.15%
Cc1cc(C)n(-c2ccc(N3CCCSCC3)nc2)n1,-11.2%,1.265%
CC(CC(=O)NCCNS(C)(=O)=O)C1CCCCC1 (centres undefined),-65.2%,15.18%
COc1ccc(OC)c(C(O)CN2CCN(c3cccc(C)c3)CC2)c1 (centres undefined),-4.158%,21.42%

For reference, 5 entries once more:

structure	T. brucei	Toxoplasma
Cc1cn[nH]c1C1COCCN1C(=O)c1ccc2[nH]nnc2c1 (centres undefined)	2.93%	10.75%
[H][C@]12CC[C@@]3(N=C(C)N(CC)C3=O)[C@@]1([H])CN(C(=O)NCC(C)C)C2	-3.154%	5.296%
CCNC(=O)NC[C@@H]1C=C(C)[C@H](CC(=O)NCCN(C)C)C[C@H]1C(C)C	-12.54%	-5.174%
COc1ccc(OC)c(C(O)CN2CCN(c3cccc(C)c3)CC2)c1 (centres undefined)	-4.158%	21.42%
COCCc1noc(-c2cn(Cc3ccc(OC)cc3)nn2)n1	-	-14.35%